Results are given in words; binding and its absence hold for the method and conditions named. Some entries that bind do so weakly or less than the wild type.
Key:
[1] = target: T1, PDZ domain of GIPC/synectin displayed on T7 phage (UniProt O14908); assay: phage binding assay (ELISA), N-terminal biotinylated peptide, GIPC-PDZ T7 phage
T1 sequence (looked up): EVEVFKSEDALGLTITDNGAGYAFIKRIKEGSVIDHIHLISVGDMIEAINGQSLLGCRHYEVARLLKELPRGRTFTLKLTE

[2] = target: T1, PDZ domain of GIPC/synectin displayed on T7 phage; assay: phage ELISA

- binding [1]: binds
- binding [2]: binds
Binder: PSQSSSEA (N-terminal biotin) [N-terminal biotinylated blocking peptide PSQSSSEA (SEQ ID NO: 3) (from GAIP)]
